Measurements reported in patent US20230174472A1, “THERAPEUTIC USE OF PLEUROMUTILINS” (priority 2020, published 2023).
Like-named read-outs stand apart in the source and are kept apart here.

System: HEp2 cells
Test: cell viability of uninfected HEp2 cells (XTT)
Settings: read-out: TC50

Compound: Cc1ccc(CCCO)c(NCc2ccc3nc(NCCCN4CCOCC4)n(Cc4nc(C)ccc4O)c3c2)c1 [TMC353121]
- CC50 (Example 8, uninfected drug control wells, 6 days): > 100 nM
- CC50 (Example 9, MOI 0.0004 series): > 100 nM
- CC50 (Example 9, MOI 0.0008 series): > 100 nM
- CC50 (Example 9, MOI 0.001 series): > 100 nM
- CC50 (Example 9, MOI 0.003 series): > 100 nM
- CC50 (Example 10, RSV ALONG assay): > 1000 nM
- CC50 (Example 10, RSV B18537 assay): > 1000 nM
